In patent US20090069418A1, “Compositions and Methods for the Treatment of Disorders Associated with Aberrant Vasodilation” (priority 2007, published 2009):

Test system: mice
Format: in vivo
Details: given prior to LCA occlusion (PRE)
Excerpt: Male mice between the ages of 16-24 weeks were anesthetized with isoflurane (induction 4-5 vol %; maintenance 1-2 vol %), intubated with a 20G plastic IV catheter, and mechanically ventilated using a rodent ventilator (Inspira, volume-controlled, Harvard Apparatus, MA). ECG and rectal temperature were continuously monitored using a PC-based recording device (PowerLab 8/30, ADInstruments, Colorado Springs, Colo.). The animals were positioned in a right lateral decubital position on a heating pad and rectal temperature was maintained at 37° C. throughout the experiment. A PE-10 catheter was inserted into the left jugular vein for intravenous drug infusion. Using a dissecting microscope, a left-sided thoracotomy was performed in the 4th intercostal space. […] A ligature (8-0 Monosof MV-135-4, ⅜ 5 mm tapered needle, Syneture, Norwalk, Colo.) was placed around the left coronary artery (LCA) approximately 2 mm distal to the left atrial margin. The suture was fed through a short section of PE-10 tubing to form a snare to allow temporary occlusion. The LCA was occluded for 40 minutes; occlusion was confirmed by persistent ECG changes during occlusion and visual paling of the left ventricle (LV). After 40 minutes the snare was released and reperfusion was confirmed with visual hyperemia of the LV and return of the ECG changes. After 2 hours of reperfusion the LCA was re-occluded and fluorescent polymer microspheres (0.4% solution, diameter 1-10 μm; Duke Scientific Corporation, Palo Alto, Calif.) were infused via needle puncture of the LV apex. […] Heart was then excised, rinsed in normal saline, and the right and left atria were removed under the dissecting microscope. The remaining left and right ventricles were weighed and then sliced into seven sections (d=1 mm) for imaging and staining.
Heart sections were immediately photographed with a digital camera (Canon Powershot A620) under UV light for determination of AAR. Infarct size (I) was determined by staining the heart sections in 1% 2,3,5 triphenyltetrazolium chloride (TTC) in phosphate buffer at pH 7.4 for 10 minutes, followed by 10% neutral buffered formalin (NBF) bath overnight. Pictures were taken the next day under full spectrum light. TTC stained non-infarcted myocardium red, while infarcted myocardium remained white. Both AAR and I areas were calculated in a blinded fashion using standard imaging software (Photoshop Elements 4). A calibration ruler was present in each picture to convert pixels into volume. TTC slices were volume corrected for dehydration following formalin immersion.
The 14,15-EET was obtained from BIOMOL (Plymouth Meeting, Pa.). It was dissolved in a vehicle composed of 100% ethanol and saline (1:3), resulting in a final ethanol solution of 25%. […]

Question: With C=CCN1C[C@H](C)N([C@@H](c2ccccc2)c2ccc(C(=O)N(CC)CC)cc2)C[C@H]1C [SNC-162] as the compound, how does the AAR/Biventricular volume read?
Answer: Its AAR/Biventricular volume is 27 ± 2%.

Question: And the “Area At Risk” value?
Answer: The value was 31 ± 3 mm^3.

Question: What about the “Biventricular Weight” value of the same compound?
Answer: Its value is 115 ± 6 mg.

Question: And the “Body Weight” value?
Answer: Its value is 26 ± 1 g.
